This is one part of the list. The data scatter; read single values as rough.
Compound: ClCC(=O)N[C@H]1CCCc2ccccc12
Test: log2 mean competition ratio of IA-DTB cysteine labelling (DMSO/compound) (log2 ratio); higher = stronger cysteine engagement by compound
Settings: 200 µM; treatment time: 4 h; cell line lysate: HEK293T
Protocol: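 IA-DTB competitive cysteine chemoproteomics in HEK293T RIPA lysate. Lysates were treated with compound 29 or 30 at 50 or 200 µM for 4 h, then IA-DTB (500 µM, 1 h), trypsin-digested, NeutrAvidin-enriched and analysed by diaPASEF. Competition ratio = intensity DMSO / intensity compound (n=4 treated, n=64 DMSO); binding: mean log2 CR ≥ 1 and p ≤ 0.05 plus QC filters. Target is the cysteine site.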

Protein sequences, listed by entry. Tags and fused reporters are not part of them. Lines headed by an entry give the natural chain unless they say otherwise; changes in a name come on top. Residues count along the entry.
UniProt Q9ULH7, 620-640: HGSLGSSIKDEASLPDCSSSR
UniProt P42285: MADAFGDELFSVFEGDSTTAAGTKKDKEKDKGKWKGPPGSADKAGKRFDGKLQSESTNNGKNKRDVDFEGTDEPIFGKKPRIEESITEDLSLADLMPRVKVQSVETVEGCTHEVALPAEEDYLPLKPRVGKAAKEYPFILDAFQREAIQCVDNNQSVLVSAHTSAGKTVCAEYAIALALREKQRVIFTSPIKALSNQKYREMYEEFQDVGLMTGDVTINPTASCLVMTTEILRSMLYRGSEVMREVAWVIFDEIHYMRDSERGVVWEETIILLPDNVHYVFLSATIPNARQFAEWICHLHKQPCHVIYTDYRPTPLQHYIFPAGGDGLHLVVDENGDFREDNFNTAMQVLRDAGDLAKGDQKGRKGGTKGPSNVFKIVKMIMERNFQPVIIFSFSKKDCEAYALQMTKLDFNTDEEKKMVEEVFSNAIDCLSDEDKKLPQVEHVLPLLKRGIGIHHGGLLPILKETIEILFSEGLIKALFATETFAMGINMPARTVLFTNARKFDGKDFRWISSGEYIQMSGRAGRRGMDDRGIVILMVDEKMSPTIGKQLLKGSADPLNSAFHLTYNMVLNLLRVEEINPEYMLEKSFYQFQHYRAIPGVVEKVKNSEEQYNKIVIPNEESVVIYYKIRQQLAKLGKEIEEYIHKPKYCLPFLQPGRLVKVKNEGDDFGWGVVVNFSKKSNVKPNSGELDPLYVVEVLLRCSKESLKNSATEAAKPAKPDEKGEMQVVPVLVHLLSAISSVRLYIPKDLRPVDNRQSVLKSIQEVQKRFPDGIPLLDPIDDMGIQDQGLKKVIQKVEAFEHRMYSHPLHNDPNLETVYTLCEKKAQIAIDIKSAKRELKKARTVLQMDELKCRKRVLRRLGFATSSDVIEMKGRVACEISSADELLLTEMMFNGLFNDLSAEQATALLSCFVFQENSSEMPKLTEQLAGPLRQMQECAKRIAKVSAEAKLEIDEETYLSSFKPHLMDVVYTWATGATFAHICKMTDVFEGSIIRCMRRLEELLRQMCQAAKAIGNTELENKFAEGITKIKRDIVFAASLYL
UniProt O43795: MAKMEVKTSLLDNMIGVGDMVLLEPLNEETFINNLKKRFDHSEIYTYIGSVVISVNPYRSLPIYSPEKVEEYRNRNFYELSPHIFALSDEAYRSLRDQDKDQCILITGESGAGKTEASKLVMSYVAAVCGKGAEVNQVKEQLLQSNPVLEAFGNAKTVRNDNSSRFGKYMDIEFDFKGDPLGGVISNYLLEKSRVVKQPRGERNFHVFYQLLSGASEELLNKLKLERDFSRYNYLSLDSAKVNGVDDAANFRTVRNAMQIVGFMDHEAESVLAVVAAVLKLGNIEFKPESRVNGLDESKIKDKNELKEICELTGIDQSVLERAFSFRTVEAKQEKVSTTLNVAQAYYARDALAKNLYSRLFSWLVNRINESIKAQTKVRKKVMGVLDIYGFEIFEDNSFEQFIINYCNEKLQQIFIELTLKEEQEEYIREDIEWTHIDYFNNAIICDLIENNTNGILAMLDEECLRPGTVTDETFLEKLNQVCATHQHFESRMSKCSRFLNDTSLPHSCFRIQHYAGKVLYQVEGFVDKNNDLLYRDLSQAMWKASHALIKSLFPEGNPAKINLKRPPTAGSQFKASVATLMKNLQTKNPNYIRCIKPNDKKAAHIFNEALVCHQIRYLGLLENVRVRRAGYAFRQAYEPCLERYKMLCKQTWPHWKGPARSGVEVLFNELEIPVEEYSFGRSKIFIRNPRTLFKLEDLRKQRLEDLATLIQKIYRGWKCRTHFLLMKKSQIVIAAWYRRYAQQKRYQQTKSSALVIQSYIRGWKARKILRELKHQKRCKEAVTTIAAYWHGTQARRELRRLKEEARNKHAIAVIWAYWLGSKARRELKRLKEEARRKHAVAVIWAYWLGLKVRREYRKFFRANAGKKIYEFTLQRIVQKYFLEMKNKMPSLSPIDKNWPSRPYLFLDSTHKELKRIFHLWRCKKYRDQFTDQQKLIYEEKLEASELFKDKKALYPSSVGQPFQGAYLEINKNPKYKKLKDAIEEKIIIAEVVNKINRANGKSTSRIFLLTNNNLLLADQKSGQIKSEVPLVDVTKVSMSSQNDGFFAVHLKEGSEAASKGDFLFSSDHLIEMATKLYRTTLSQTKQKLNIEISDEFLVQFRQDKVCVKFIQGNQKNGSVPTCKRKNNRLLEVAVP
UniProt Q9BT17: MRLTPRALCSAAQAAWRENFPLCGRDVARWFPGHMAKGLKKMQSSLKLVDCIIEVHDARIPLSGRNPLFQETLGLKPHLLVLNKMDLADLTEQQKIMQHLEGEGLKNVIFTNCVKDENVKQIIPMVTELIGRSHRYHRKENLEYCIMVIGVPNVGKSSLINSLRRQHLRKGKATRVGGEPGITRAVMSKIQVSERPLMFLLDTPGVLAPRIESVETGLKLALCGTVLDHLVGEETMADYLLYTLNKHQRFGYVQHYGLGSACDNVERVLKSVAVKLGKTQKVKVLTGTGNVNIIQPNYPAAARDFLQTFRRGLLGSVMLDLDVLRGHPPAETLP
UniProt Q9Y3D2, 23-51: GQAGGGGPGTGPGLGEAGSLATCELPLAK
UniProt Q6IA69: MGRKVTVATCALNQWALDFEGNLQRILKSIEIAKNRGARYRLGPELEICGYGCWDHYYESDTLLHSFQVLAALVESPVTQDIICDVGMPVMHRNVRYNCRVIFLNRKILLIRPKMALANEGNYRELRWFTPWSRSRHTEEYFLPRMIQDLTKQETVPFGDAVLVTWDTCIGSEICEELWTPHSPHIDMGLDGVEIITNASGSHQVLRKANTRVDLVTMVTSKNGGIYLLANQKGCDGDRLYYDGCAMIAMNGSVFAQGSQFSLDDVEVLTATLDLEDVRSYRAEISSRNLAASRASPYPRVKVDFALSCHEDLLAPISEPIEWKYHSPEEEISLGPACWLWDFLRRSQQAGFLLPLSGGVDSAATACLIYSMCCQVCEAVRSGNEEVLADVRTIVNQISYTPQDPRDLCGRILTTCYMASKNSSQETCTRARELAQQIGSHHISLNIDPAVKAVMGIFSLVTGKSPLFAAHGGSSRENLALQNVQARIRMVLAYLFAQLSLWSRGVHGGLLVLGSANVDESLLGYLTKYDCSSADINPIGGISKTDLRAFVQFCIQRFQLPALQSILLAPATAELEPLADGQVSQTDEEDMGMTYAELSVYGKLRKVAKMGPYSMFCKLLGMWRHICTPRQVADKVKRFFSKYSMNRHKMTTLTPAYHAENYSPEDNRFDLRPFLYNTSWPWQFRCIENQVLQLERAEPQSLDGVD
UniProt Q9ULD2: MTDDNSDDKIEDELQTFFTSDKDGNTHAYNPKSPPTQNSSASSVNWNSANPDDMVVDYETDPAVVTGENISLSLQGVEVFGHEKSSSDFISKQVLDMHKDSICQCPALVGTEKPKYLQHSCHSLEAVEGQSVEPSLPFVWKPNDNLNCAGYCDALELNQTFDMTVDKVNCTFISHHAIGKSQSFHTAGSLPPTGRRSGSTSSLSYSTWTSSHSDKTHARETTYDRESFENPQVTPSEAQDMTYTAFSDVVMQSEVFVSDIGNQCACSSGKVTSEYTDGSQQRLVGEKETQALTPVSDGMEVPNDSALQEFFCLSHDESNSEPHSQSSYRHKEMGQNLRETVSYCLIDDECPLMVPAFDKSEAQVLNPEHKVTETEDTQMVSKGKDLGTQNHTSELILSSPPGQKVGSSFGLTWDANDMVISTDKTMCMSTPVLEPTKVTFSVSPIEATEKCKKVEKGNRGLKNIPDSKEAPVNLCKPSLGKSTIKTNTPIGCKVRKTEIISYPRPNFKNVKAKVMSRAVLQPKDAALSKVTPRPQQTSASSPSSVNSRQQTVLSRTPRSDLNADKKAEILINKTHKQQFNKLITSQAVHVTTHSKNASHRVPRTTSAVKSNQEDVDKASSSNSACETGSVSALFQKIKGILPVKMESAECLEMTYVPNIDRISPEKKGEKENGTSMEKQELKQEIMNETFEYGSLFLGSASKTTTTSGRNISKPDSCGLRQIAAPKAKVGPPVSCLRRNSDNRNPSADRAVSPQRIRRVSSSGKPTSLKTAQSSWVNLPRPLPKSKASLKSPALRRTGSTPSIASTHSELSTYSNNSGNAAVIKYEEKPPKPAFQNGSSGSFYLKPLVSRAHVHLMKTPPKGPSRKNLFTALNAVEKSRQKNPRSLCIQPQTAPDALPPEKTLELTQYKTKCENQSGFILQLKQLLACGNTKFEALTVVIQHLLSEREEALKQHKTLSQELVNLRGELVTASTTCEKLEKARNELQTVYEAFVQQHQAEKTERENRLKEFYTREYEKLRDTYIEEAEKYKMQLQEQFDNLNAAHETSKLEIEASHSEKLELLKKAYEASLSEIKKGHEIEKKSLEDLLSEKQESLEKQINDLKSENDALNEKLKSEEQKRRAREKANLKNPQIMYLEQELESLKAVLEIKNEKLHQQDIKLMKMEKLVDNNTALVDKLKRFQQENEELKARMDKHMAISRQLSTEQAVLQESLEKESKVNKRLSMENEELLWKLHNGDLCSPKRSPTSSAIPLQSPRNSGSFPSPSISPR
UniProt P53602, 2-22: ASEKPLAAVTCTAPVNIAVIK
UniProt P61599, whole entry, looked up: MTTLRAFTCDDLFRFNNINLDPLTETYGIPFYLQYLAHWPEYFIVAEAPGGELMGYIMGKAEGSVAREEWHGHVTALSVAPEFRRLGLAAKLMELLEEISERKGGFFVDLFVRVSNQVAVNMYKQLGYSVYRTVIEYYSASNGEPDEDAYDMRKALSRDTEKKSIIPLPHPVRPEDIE
UniProt Q86UW6: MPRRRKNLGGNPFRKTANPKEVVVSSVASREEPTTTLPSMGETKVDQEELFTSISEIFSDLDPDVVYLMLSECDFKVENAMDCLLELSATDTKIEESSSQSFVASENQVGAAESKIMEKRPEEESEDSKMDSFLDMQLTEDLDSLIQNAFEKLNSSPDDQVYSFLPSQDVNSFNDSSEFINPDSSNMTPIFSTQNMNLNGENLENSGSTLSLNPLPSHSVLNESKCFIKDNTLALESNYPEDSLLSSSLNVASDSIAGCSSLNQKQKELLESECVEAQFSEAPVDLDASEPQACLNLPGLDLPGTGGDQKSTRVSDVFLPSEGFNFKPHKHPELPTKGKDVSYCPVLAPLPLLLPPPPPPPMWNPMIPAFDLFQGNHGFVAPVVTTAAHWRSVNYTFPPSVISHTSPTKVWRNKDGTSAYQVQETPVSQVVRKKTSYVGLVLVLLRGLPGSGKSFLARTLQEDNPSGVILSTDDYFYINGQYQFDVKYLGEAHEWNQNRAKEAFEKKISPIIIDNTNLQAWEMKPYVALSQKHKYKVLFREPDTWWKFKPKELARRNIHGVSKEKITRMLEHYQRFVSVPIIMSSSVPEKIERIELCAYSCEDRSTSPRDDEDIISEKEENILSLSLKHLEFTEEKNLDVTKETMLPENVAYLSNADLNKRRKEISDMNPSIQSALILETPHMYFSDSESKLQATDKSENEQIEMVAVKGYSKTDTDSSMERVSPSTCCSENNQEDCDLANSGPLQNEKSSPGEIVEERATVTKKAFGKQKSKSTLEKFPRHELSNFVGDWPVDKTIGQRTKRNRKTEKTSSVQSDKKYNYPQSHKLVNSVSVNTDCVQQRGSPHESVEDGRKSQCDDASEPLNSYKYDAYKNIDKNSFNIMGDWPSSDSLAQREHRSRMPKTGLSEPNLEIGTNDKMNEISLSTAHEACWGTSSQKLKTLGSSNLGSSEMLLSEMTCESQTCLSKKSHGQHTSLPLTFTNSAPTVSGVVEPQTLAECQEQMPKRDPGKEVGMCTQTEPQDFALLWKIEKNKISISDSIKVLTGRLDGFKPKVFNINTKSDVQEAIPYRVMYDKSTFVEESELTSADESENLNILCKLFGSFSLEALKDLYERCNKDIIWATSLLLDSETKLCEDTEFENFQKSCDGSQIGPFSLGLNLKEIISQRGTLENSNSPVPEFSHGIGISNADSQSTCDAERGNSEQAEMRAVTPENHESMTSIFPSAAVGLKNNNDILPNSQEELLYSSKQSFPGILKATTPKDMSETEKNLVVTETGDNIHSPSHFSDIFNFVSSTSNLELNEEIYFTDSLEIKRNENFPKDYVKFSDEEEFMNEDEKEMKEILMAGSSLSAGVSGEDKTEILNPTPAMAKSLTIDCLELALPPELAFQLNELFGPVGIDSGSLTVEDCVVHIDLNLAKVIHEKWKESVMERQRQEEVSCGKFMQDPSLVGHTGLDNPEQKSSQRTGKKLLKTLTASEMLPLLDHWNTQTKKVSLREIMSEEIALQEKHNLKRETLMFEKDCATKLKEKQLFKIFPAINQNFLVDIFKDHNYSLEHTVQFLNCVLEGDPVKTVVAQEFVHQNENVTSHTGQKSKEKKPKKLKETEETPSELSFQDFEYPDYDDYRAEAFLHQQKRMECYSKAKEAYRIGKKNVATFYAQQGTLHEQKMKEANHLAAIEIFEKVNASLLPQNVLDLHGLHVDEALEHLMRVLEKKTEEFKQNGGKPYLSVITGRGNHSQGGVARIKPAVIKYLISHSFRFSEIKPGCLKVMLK
UniProt Q13614, 4-40: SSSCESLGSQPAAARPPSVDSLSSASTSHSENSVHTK

Target | log2 mean competition ratio
MRPS6 C105 (UniProt P82932) | -0.171
MTIF2 C290 (UniProt P46199) | 0.181
MYBBP1A C890 (UniProt Q9BQG0) | -0.024
MRTFB C636 (UniProt Q9ULH7) | 0.0355
MTREX C430 (UniProt P42285) | -0.32
MTOR C713 (UniProt P42345) | -0.215
MTMR3 C928 (UniProt Q13615) | 0.0103
MYO1B C310 (UniProt O43795) | -0.155
MYO19 C227 (UniProt Q96H55) | 0.235
MYO1E C586 (UniProt Q12965) | -0.324
MTG1 C113 (UniProt Q9BT17) | -0.0531
MTHFD1L C61 | 0.114
MSRB2 C45 (UniProt Q9Y3D2) | 0.575
NADSYN1 C531 (UniProt Q6IA69) | -0.258
MYCBP2 C3824 (UniProt O75592) | 0.164
MYH14 C324 (UniProt Q7Z406) | -0.0507
MTUS1 C975 (UniProt Q9ULD2) | 0.259
MYO1B C641 (UniProt O43795) | 0.359
MYBL2 C668 (UniProt P10244) | 0.422
MRPS12 C132 (UniProt O15235) | -0.306
MTG1 C23 (UniProt Q9BT17) | 0.128
MVD C108 (UniProt P53602) | 0.783
NAA20 C9 (UniProt P61599) | 0.0862
N4BP2 C1438 (UniProt Q86UW6) | -0.082
MVD C12 (UniProt P53602) | -0.687
MTERF4 C76 (UniProt Q7Z6M4) | 0.259
MTMR2 C7 (UniProt Q13614) | -0.437

Given with each value named: part of the list above
MYCBP2 C3824 (UniProt O75592)
  log2 mean competition ratio = 0.164
MYH14 C324 (UniProt Q7Z406)
  log2 mean competition ratio = -0.0507

Source: the supplement of paper PMC11732987, “Enantioselective OTUD7B fragment discovery through chemoproteomics screening and high-throughput optimisation” (Communications Chemistry, 2025)
